These are yes or no findings as the source states them, for the method shown. Some binding calls cover weakened binding; strength is not graded here.
Tests used:
[1] = target: unprocessed GDF-8 (human) (UniProt O14793); test: immunoprecipitation from 35S-labelled CHO conditioned medium, antibody 20 ug/ml, Protein A-Sepharose, reducing SDS-PAGE
[2] = target: GDF-8 latent complex (human) (UniProt O14793); test: as above
[3] = target: mature human GDF-8 (growth and differentiation factor-8) (human) (UniProt O14793); test: as above
[4] = target: mature human GDF-8 (growth and differentiation factor-8) (human) (UniProt O14793); test: Western blotting, non-reducing conditions

By UniProt entry, the sequences of proteins in these tests, tags left out. Residues count along the entry.
UniProt O14793, residues 24-375: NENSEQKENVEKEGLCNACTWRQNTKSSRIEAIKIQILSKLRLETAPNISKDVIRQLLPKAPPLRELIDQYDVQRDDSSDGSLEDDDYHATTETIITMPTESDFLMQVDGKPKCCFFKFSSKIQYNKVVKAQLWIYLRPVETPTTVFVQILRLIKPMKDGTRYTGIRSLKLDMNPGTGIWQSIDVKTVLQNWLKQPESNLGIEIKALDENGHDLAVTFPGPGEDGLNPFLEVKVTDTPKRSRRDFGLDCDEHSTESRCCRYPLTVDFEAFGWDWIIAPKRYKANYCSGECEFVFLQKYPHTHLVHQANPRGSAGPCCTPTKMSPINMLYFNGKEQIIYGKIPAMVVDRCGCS

Measured: binding

B1: Myo28 human IgG1 antibody (antibody, V domains shown)
VH: QVTLKESGGGLVQPGGSLRLSCAASGFTFSRYVINWVRQAPGKGLEWVSAISVTGGSTAYADSVRGRFTISRDNSKNTLYLQMNSLRAEDTAVYYCTKGQWERGSYYFDYWGRGTLVTVSS
VL: QSVLTQPPSVSGAPGQRVTISCTGSSSNIGDGYDVHWYQQLPGTAPKLLIYGNSHRPSGVPDRFSGSKSDTSASLAITGLQVEDEADYFCHSYDGSVSGWIFGGGTKLTVLG
binds: all assays above
